Drawing on PubChem BioAssay AID212 (DTP/NCI, 2004), this text covers T/C and survivor count for six compounds.

The list does not hold the whole screen: it gathers some chemical classes. Other doses and runs of a compound may be missing. T/C is the treated group as % of the vehicle group. Schedule codes are those of the source, taken here to give the interval after Q, in days (D) or hours (H), and the number of doses after X. Some entries hold several experiments; the results are listed from low to high. Some T/C values are marked as having no survivor count here; that says nothing about deaths at the dose. Some T/C values are followed by the survivors on the day toxicity was checked; without a count or a note in brackets, all were alive then. Some entries give survivors of the animals treated and no T/C: the source holds a T/C of zero for them, seemingly a mark for toxic or unscored doses. Counts of survivors are from the toxicity check, whose day is not always given; animals may have died later.

The assay relates to BDF1 mice, colon carcinoma 38 sc, T/C %. The experiment in a line: NCI In Vivo Anticancer Drug Screen. Data for tumor model Colon Carcinoma 38 (subcutaneous) in B6D2F1 (BDF1) mice. The settings on record: T/C endpoint: median tumor weight (est.), schedule: Q07DX002 (ip), higher T/C = larger tumour. How it is done:
The antitumor activity of compounds was measured in mice bearing transplantable tumors. Survival or tumor size were measured and the results are expressed as the measurement made in the treated group (T) divided by the measurement made in the vehicle treated control group (C). The tumor model used in this assay is Colon Carcinoma 38 (subcutaneous) in B6D2F1 (BDF1) mice

Setting [1] is: dose: 50.0 mg/kg/injection, vehicle: Klucel (hydroxypropylcellulose) (HPC), evaluated on day 20.
[2] abbreviates: dose: 100.0 mg/kg/injection, vehicle: Klucel (hydroxypropylcellulose) (HPC), evaluated on day 20.
[3] abbreviates: dose: 200.0 mg/kg/injection, vehicle: Klucel (hydroxypropylcellulose) (HPC), evaluated on day 20.
[4] abbreviates: dose: 400.0 mg/kg/injection, vehicle: Klucel (hydroxypropylcellulose) (HPC), evaluated on day 20.

On to `Cc1ccc(N(CCBr)CCBr)cc1`, for which, where the note is “dose: 6.25 mg/kg/injection, vehicle: Klucel (hydroxypropylcellulose) (HPC), evaluated on day 20”, the T/C was 123 % of control. Also, the survivor count by setting is: (dose: 12.5 mg/kg/injection, vehicle: Klucel (hydroxypropylcellulose) (HPC)) 3 of 10 on day 20; (dose: 25.0 mg/kg/injection, vehicle: Klucel (hydroxypropylcellulose) (HPC)) 4 of 10 on day 20; (dose: 50.0 mg/kg/injection, vehicle: Klucel (hydroxypropylcellulose) (HPC)) 0 of 10 on day 20; (dose: 100.0 mg/kg/injection, vehicle: Klucel (hydroxypropylcellulose) (HPC)) 0 of 10 on day 20; (dose: 200.0 mg/kg/injection, vehicle: Klucel (hydroxypropylcellulose) (HPC)) 0 of 10 on day 20.
Turning to `CC1=CC(=O)C(N(CCCl)CCCl)=CC1=O`, the T/C runs as follows: (dose: 0.09 mg/kg/injection, vehicle: Klucel (hydroxypropylcellulose) (HPC), evaluated on day 20) 99 % of control; (dose: 0.19 mg/kg/injection, vehicle: Klucel (hydroxypropylcellulose) (HPC), evaluated on day 20) 73 % of control; (dose: 0.37 mg/kg/injection, vehicle: Klucel (hydroxypropylcellulose) (HPC), evaluated on day 20) 64 % of control; (dose: 0.75 mg/kg/injection, vehicle: Klucel (hydroxypropylcellulose) (HPC), evaluated on day 20) 77 % of control; (dose: 0.78 mg/kg/injection, vehicle: Klucel (hydroxypropylcellulose) (HPC), evaluated on day 20) 81 % of control; (dose: 0.78 mg/kg/injection, vehicle: other, evaluated on day 20) 122 % of control. Moreover, the T/C was 70 and 118 % of control (dose: 1.5 mg/kg/injection, vehicle: Klucel (hydroxypropylcellulose) (HPC), evaluated on day 20); 76 % of control (dose: 1.56 mg/kg/injection, vehicle: Klucel (hydroxypropylcellulose) (HPC), evaluated on day 20); 83 and 139 % of control (dose: 3.0 mg/kg/injection, vehicle: Klucel (hydroxypropylcellulose) (HPC), evaluated on day 20); 60 % of control (dose: 3.12 mg/kg/injection, vehicle: other, evaluated on day 20); 65 % of control (dose: 3.13 mg/kg/injection, vehicle: Klucel (hydroxypropylcellulose) (HPC), evaluated on day 20); 84 % of control (dose: 6.25 mg/kg/injection, vehicle: other, evaluated on day 20). Also, for the setting “dose: 12.5 mg/kg/injection, vehicle: other, evaluated on day 20”, the T/C was 82 % of control.
With `N#Cc1ccc(N(CCCl)CCCl)cc1`, the T/C is 100 % of control under setting [1]; 75 % of control under setting [2]; 76 % of control under setting [3]; 83 % of control [9 of 10 alive on day 20] under setting [4]; 76 % of control (dose: 800.0 mg/kg/injection, vehicle: Klucel (hydroxypropylcellulose) (HPC), evaluated on day 20).
In the case of `C[N+](CCCl)(CCCl)Cc1ccc([N+](=O)[O-])cc1`, the T/C reads like this: (dose: 3.12 mg/kg/injection, vehicle: saline, evaluated on day 20) 153 % of control; (dose: 6.25 mg/kg/injection, vehicle: saline, evaluated on day 20) 142 % of control; (dose: 12.5 mg/kg/injection, vehicle: saline, evaluated on day 20) 167 % of control; (dose: 25.0 mg/kg/injection, vehicle: saline, evaluated on day 20) 150 % of control.
Consider `Cc1ccc(N(CCCl)CCCl)cc1`, for which the T/C is 83 % of control [9 of 10 alive on day 20] under setting [1], 83 % of control [8 of 10 alive on day 20] under setting [2], 82 % of control [9 of 10 alive on day 20] under setting [3] and 43 % of control under setting [4]. The survivor count (dose: 800.0 mg/kg/injection, vehicle: Klucel (hydroxypropylcellulose) (HPC)) is recorded as 0 of 10 on day 20.
In the case of `NS(=O)(=O)c1ccc(N(CCCl)CCCl)cc1`, the T/C under setting [1] was 85 % of control; the T/C under setting [2] is 93 % of control; the T/C (dose: 100.0 mg/kg/injection, vehicle: Klucel (hydroxypropylcellulose) (HPC), evaluation day not shown) was 143 % of control [survivor count not shown]; the T/C (dose: 200.0 mg/kg/injection, vehicle: Klucel (hydroxypropylcellulose) (HPC), evaluation day not shown) was 118 % of control [survivor count not shown].
